Measured values reported in patent US9820481B2, “Encapsulation of active ingredients and method of making” (Arch Chemicals, Inc., priority 2013, dated 2017).

Assay: Color (CIE L*a*b*, gloss, ΔYE) of flexible PVC films containing zinc pyrithione
Details: 2000 ppm in flexible PVC film
[1] = pressed at 160° C., over white leneta board

Q: Which results are given for zinc pyrithione [Zinc Pyrithione-Std]?
A: G (gloss) (pressed at 160° C.): 26.4; L [1]: 88.68; a [1]: 0.24; b [1]: 8.67; Delta-YE (ΔYE with respect to white): 18.12
